Measured data: PubChem BioAssay AID1259254 (NCATS, 2017)
The whole screen tested about 59,000 reagents; below is an unselected part. About 1,550 of all reagents (2.6%) were called active. 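G2 share is only a proxy for re-replication; each gene was hit by three separate siRNAs, and active genes were retested.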 Raw values are not corrected between plates. The numbers tell different reagents against one gene apart. Reagent sequences are not shown. Not given: the amount of reagent.

- Aim: 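Gene knock-downs that lead to re-replication, shown by excess G2 DNA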 (primary screen)
- Cells: human HCT116 colorectal cancer cells
- Knock-down reagent: single siRNA against human genes
- Timing: 3 days
- Measurement: 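Nuclei stained with Hoechst and imaged; cell-cycle phase assigned by DNA content; G2 share scaled per plate, non-targeting siRNA 0%, GMNN siRNA 100%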
- Scale: G2 robust z-score and G2 cells, % of GMNN control: higher = more G2 cells, more excess DNA replication; raw share of cells in G2: higher = larger share of cells with G2 DNA content
- Active means: 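An siRNA counts as active if its G2 robust z-score lies at least 5 MADs above the screen median; here such calls match roughly 38% of GMNN control or more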

target gene	siRNA no.	G2 robust z-score	G2 cells, % of GMNN control	raw share of cells in G2 (%)	Call
RPS6KA1	1	0.219	4.51	7.1	inactive
RPS6KA1	2	-0.443	-0.151	5.36	inactive
RPS6KA1	3	2.61	21.3	11.5	inactive
FAM185A	1	-0.407	0.104	3.62	inactive
FAM185A	2	1.51	13.6	7.78	inactive
FAM185A	3	0.135	3.92	4.44	inactive
CARTPT	1	0.588	7.11	8.54	inactive
CARTPT	2	1.42	13	9.36	inactive
CARTPT	3	0.986	9.91	7.01	inactive
GPRC5C	1	-0.765	-2.41	4.98	inactive
GPRC5C	2	0.296	5.05	6.28	inactive
GPRC5C	3	0.339	5.35	4.91	inactive

Single entries from the entries so far:
Entry of RPS6KA1 #1 under “G2 robust z-score”: 0.219
Value for FAM185A #3 in “raw share of cells in G2 (%)”: 4.44
Under “raw share of cells in G2 (%)”, RPS6KA1 #3 has 11.5

The list goes on.
target gene	siRNA no.	G2 robust z-score	G2 cells, % of GMNN control	raw share of cells in G2 (%)	Call
LY9	1	2.06	17.4	12.1	inactive
LY9	2	-0.761	-2.39	4.52	inactive
LY9	3	-1.06	-4.51	1.71	inactive
ZNF502	1	-0.759	-2.37	2.34	inactive
ZNF502	2	-0.175	1.73	3.69	inactive
ZNF502	3	-0.929	-3.57	2.27	inactive
GPRASP3	1	5.27	40	21.1	active
GPRASP3	2	2.49	20.5	13.3	inactive
GPRASP3	3	3.75	29.3	10.4	inactive
AGPAT3	1	0.272	4.88	8.57	inactive
AGPAT3	2	-0.239	1.29	4.87	inactive
AGPAT3	3	4.67	35.8	17.3	inactive
FBN2	1	1.12	10.8	9.17	inactive
FBN2	2	-0.681	-1.82	4.57	inactive
FBN2	3	-0.0656	2.51	4.55	inactive
XCL1	1	-0.198	1.57	5.64	inactive
XCL1	2	-0.382	0.278	4.33	inactive
XCL1	3	-0.399	0.161	3.41	inactive
